Test results: PubChem BioAssay (Tox21)
Values joined by “and” are separate entries in the source; they are usually repeats but may differ in a detail not shown here. Equal values may be shown once. The inconclusive results got no clear call from the source; some entries with a clear call stand among them for comparison. A potency beside an inconclusive call is a rough fit, not a confirmed value. Active and inactive are the calls of the source. Unless noted, the call rests on the fitted dose curve; in most records, active means well fitted curve in the direction sought with a large enough effect in the repeat runs; inconclusive means weak or mixed curves; inactive means no such curve, though single readings can be large; an effect the other way counts as inactive or inconclusive.

Sequences of proteins named here, by UniProt entry; tags and fusion partners are left off. A change or cut given only in a name is not applied to a line headed by its entry.
UniProt P19793: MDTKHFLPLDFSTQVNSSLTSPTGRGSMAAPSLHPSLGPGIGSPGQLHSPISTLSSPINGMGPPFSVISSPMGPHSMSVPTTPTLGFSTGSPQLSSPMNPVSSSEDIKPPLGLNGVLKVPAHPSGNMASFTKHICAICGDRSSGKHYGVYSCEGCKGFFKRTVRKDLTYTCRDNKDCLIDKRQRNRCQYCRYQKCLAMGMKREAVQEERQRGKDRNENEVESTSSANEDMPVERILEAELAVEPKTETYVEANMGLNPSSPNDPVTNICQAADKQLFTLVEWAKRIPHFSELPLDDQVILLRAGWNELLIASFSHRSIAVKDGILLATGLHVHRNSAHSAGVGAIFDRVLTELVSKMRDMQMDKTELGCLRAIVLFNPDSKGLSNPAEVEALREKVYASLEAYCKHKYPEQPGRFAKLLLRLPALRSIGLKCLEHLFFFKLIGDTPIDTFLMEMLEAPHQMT

Legend:
[1] = target: Retinoic acid receptor RXR-alpha (Homo sapiens) (UniProt P19793); assay: qHTS assay to identify small molecule agonists of the RXR signaling pathway (AID 1159527; calls by dose curve; further: nearly all actives have a fitted effect of over 35% in size; on activation: on the % scale 0 is the no-effect control and ±100 the full control effect); conditions: HEK293T RXRa-UAS-bla, beta-lactamase ratio, 16 h; activation: at 76.8 µM (top of the series) unless noted
Outline: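 Read-out: beta-lactamase FRET ratio (405 nm excitation, 460 and 530 nm emission) after 2 hr substrate loading at room temperature. Cells were RXR-alpha-UAS-bla HEK 293T treated with compounds for 16 hr in 2% charcoal-stripped FBS medium.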

[2] = qHTS assay to identify small molecule agonists of the RXR signaling pathway - cell viability counter screen (AID 1159529); further: nearly all actives have a fitted effect of over 50% in size
Outline: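 HEK 293T RXRa-bla cells, 2% CS-FBS; 5 h settle; cpd 16 h 37 C, 5% CO2; CellTiter-Glo 30 min RT, luminescence. Tetraoctyl ammonium bromide as positive control.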

[3] = qHTS assay to identify small molecule antagonists of the retinoid acid receptor (RAR) signaling pathway - cell viability counter screen (AID 1159551); further: nearly all actives have a fitted effect of over 35% in size
Outline: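 Seed C3RL4 cells; next day add compound, then retinol to 1 uM final; incubate 6 h at 37 C; add CellTiter-Glo; read luminescence after 30 min at RT.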

[4] = qHTS assay to identify small molecule antagonists of the retinoic acid receptor (RAR) signaling pathway (AID 1159552; further: nearly all actives have a fitted effect of over 50% in size)
Outline: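 Cells of the C3RL4 line were seeded, incubated overnight, then dosed with compounds in DMSO followed immediately by retinol (1 uM final). Six hours later luciferase detection reagent went in; signal was measured after 30 min at RT.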

[5] = qHTS assay to identify small molecule agonists of the retinoic acid receptor (RAR) signaling pathway (AID 1159553); conditions: C3RL4 RARE luciferase reporter, agonist, 6 h; activation: at 73.3 µM (top of the series) unless noted
Outline: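 Activation of retinol signaling was monitored via a RARE luciferase reporter in C3RL4 cells. After 6 hr compound treatment at 37 C, detection reagent was added for 30 min at room temperature before luminescence reading.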

[6] = qHTS assay to identify small molecule antagonists of the estrogen related receptor (ERR) signaling pathway - cell viability counter screen (AID 1224818);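 further: viability measured after 17.5 h of compound exposure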
Outline: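 In the same ERR cell assay, compound-treated wells (17.5 h, 37 C) were multiplexed with a fluorogenic viability reagent, CellTiter-Fluor, read after 30 min to flag cytotoxic substances.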

[7] = qHTS assay to identify small molecule antagonists of the estrogen related receptor signaling pathway with the pleiotropic PPARgamma coactivator (PGC) cell viability counter screen (AID 1224822)
Outline: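 Compounds in DMSO, with positive and negative controls, were applied to PGC/ERR cells (2,000/well) and left 17.5 h at 37 C before CellTiter-Fluor detection.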
Potency means the concentration at half of the fitted maximal effect.

Structure (SMILES) | Potency [1] | Potency [2] | Potency [3] | Potency [4] | Potency [5] | Potency [6] | Potency [7] | activation [1]
COCC(=O)O[C@]1(CCN(C)CCCc2nc3ccccc3[nH]2)CCc2cc(F)ccc2[C@@H]1C(C)C | inconclusive: 10.7 µM [rising, partial curve, poor fit] | active: 15.1 µM | inconclusive: 33.5 µM [cytotoxic, single point] | active: 26.6 µM | inconclusive: 29.8 µM [inhibitor, single point] | inconclusive: 26.6 µM [cytotoxic, single point] | inconclusive: 31 µM [cytotoxic] | 
CN1CCC(N(Cc2cccs2)c2ccccc2)CC1 |  | inconclusive: 6.01 µM [cytotoxic, partial curve, poor fit] | inactive | inconclusive: 37.6 µM [inhibitor, single point] | inconclusive: 13.3 µM [activator, partial curve, poor fit] |  |  | inconclusive: -34% [at 35.3 µM]
[Cl][Au]([Cl])[Cl] | inconclusive: 0.0776 µM [inhibitor, full curve] | active: 24.5 µM | inconclusive: 24.3 µM |  | inconclusive: 17.2 µM [inhibitor, full curve] |  |  | 
C[C@H](CN1CCCC1)C(=O)c1ccc(C(F)(F)F)cc1 | inconclusive: 37.9 µM [rising, partial curve, poor fit] | inconclusive: 23.9 µM [cytotoxic, partial curve, poor fit] |  |  |  |  |  | 
C[C@@H]1C[C@H]2[C@@H]3CCC4=CC(=O)C=C[C@]4(C)[C@@]3(Cl)[C@@H](O)C[C@]2(C)[C@@]1(OC(=O)c1ccco1)C(=O)CCl | inconclusive: 13.4 µM [rising, partial curve, poor fit] | inconclusive: 10.7 µM [cytotoxic] |  |  |  |  |  | 
Cc1cccc(C)c1NC(=O)CN1CCN(CCCC(c2ccc(F)cc2)c2ccc(F)cc2)CC1 | inconclusive: 15.1 µM [inhibitor] | active: 21.3 µM | inconclusive: 33.5 µM [cytotoxic, single point] | active: 26.6 µM | inconclusive: 26.6 µM [inhibitor, partial curve] |  |  | 
Nc1ccc(C(=O)Nc2ccccc2N)cc1 | inconclusive: 1.9 µM [activator, full curve, poor fit] | inconclusive: 0.952 µM [cytotoxic, full curve] |  |  |  |  |  | 
C=CC(=O)OCCOCCOC(=O)C=C | inconclusive: 55.2 µM | inconclusive: 55.2 µM [cytotoxic] | inconclusive: 48.8 µM [rising, partial curve] |  | inconclusive: 24.4 µM [activator, partial curve] |  |  | 
CCC1OCC(COc2ccc(Oc3ccccc3)cc2)O1 (configuration not stated) | inconclusive: 61.6 µM | inconclusive: 54.9 µM [cytotoxic, single point] | inactive |  | active: 3.44 µM |  |  | 
COC(=O)C1=C(C)NC(C)=C(C(=O)OCCN(C)Cc2ccccc2)C1c1cccc([N+](=O)[O-])c1 (configuration not stated) | inconclusive: 21.7 µM and inconclusive: 26.8 µM | active: 24.4 µM and inconclusive: 26.8 µM [cytotoxic, single point] | inconclusive: 68.2 µM [cytotoxic, single point] |  |  | active: 23.7 µM | active: 23.7 µM | 
O=CC=C(c1ccccc1)c1ccccc1 | inconclusive: 4.94 µM [inhibitor, single point] | inactive | inconclusive: 69.1 µM [cytotoxic, single point] |  | inconclusive: 77.6 µM [inhibitor, single point] |  |  | 
C=CC(=O)OCCOCC(CC)(COCCOC(=O)C=C)COCCOC(=O)C=C | inconclusive: 25.6 µM [full curve] | inconclusive: 72.1 µM [cytotoxic, single point] | inconclusive: 31.9 µM [rising, full curve] | active: 31.9 µM | active: 7.14 µM |  |  | 
c1ccc2c(c1)Oc1ccccc1S2 | inconclusive: 0.0013 µM | inconclusive: 44.4 µM [cytotoxic, partial curve, poor fit] | inconclusive: 69.7 µM [cytotoxic, partial curve, poor fit] |  |  |  |  | 

A stretch of the results above, as a working copy:
Structure (SMILES) | Potency [1] | Potency [2] | Potency [3] | Potency [4] | Potency [5] | Potency [6] | Potency [7] | activation [1]
C[C@@H]1C[C@H]2[C@@H]3CCC4=CC(=O)C=C[C@]4(C)[C@@]3(Cl)[C@@H](O)C[C@]2(C)[C@@]1(OC(=O)c1ccco1)C(=O)CCl | inconclusive: 13.4 µM [rising, partial curve, poor fit] | inconclusive: 10.7 µM [cytotoxic] |  |  |  |  |  | 
Cc1cccc(C)c1NC(=O)CN1CCN(CCCC(c2ccc(F)cc2)c2ccc(F)cc2)CC1 | inconclusive: 15.1 µM [inhibitor] | active: 21.3 µM | inconclusive: 33.5 µM [cytotoxic, single point] | active: 26.6 µM | inconclusive: 26.6 µM [inhibitor, partial curve] |  |  | 
